Test results: article PMC11552638
These are yes or no findings as the source states them, for the method shown. In cells and extracts the contact can be indirect. Some binding calls cover weakened binding; strength is not graded here.

The chains behind the UniProt entries cited, without tags or fusion partners.
UniProt Q14739: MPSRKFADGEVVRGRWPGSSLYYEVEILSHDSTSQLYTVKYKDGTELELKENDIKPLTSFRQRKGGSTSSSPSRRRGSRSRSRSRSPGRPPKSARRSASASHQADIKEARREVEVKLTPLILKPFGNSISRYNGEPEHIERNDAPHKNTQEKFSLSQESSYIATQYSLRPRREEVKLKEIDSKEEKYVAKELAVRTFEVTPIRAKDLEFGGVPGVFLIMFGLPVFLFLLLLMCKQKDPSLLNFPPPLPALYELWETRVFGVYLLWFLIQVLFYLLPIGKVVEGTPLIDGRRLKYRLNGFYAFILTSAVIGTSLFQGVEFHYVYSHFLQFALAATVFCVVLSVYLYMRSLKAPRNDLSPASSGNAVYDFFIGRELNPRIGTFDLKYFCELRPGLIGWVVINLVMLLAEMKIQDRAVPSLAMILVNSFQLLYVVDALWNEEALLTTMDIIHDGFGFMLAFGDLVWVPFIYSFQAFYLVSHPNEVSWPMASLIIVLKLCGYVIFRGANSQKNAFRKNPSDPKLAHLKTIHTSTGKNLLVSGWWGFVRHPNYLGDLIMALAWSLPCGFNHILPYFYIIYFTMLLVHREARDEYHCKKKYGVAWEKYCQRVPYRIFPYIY
UniProt P45973: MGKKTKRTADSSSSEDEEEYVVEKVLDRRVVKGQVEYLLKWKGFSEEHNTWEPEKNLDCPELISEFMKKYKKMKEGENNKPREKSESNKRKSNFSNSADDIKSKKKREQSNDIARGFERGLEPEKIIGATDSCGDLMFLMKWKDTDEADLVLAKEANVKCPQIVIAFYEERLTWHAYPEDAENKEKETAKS
UniProt P20700: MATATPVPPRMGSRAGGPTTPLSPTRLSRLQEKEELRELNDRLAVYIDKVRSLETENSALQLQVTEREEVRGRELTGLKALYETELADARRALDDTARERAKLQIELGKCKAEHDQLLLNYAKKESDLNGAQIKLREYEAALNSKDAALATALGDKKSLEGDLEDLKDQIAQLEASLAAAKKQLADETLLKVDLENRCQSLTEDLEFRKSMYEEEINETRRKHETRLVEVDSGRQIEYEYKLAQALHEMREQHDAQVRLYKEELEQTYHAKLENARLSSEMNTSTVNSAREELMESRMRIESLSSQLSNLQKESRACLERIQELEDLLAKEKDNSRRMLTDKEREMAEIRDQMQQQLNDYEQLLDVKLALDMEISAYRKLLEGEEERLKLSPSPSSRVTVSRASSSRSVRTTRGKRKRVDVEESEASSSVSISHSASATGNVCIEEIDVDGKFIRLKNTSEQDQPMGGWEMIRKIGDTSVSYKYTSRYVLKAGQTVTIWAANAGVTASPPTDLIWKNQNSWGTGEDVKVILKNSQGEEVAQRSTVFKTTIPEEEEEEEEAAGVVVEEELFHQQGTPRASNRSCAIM
UniProt Q92769: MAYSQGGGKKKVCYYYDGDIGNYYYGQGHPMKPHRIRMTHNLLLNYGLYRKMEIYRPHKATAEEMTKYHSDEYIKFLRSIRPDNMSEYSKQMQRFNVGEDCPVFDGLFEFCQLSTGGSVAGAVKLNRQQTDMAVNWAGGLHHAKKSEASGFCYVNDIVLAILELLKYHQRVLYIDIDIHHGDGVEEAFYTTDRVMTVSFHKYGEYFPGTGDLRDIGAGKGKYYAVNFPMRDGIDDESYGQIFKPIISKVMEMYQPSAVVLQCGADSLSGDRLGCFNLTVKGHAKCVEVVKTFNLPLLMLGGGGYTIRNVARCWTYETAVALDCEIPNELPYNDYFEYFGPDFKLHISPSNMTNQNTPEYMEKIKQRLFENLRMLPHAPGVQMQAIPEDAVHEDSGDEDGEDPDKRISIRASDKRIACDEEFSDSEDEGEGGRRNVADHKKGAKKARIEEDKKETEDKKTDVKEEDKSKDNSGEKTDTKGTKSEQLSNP

Columns and labels:
[1] = molecular target: Lamin B receptor, LBR (human (endogenous in WI38hTERT, GM639 and NHDF fibroblasts)) (UniProt Q14739); experiment: proximity ligation; PLA in situ (DuoLink, anti-mouse and anti-rabbit probes) with pairs of primary antibodies on formaldehyde-fixed, methanol- and Triton-permeabilised human fibroblasts (GM639 and derivatives, WI38hTERT, NHDF); foci per nucleus or nuclear MFI; also in cells lacking or depleted of WRN, HDAC2, HDAC1 or HP1α, in replicatively senescing cells and in RAF oncogene-induced senescence (4-HT)
[2] = molecular target: heterochromatin protein 1 alpha (HP1α) (human (endogenous in GM639, WI38hTERT and NHDF fibroblasts)) (UniProt P45973); experiment: as above

binding [1] | binding [2] | Substance
binds |  | Lamin B1 (from UniProt P20700 1-586)
 | binds | V5-tagged version of HDAC2 (from UniProt Q92769 1-488)
binds |  | heterochromatin protein 1 alpha (HP1α) (from UniProt P45973 1-191)
 | binds | histone deacetylase 2, HDAC2 (from UniProt Q92769 1-488)
